{"source": "patent US20190359769A1", "about": "“PHARMACEUTICAL AGENT FOR IRON CHELATING” (Johannes Gutenberg-Universität Mainz, priority 2017, published 2019)", "origin": "cited, not measured here", "settings": "relative to DFP", "note": "For at least one compound, name, drawing or mass did not settle the structure.", "data": [{"smiles": "O=C(O)c1ccc(-n2nc(-c3ccccc3O)nc2-c2ccccc2O)cc1", "note": "[DFX, Deferasirox]", "values": [{"measurement": "iron excretion, times higher than with DFP", "value": "~10", "unit": "times"}]}]}
